These are yes or no findings as the source states them, for the method shown. Some results given as binding are weak or reduced against the parent protein; the word gives no strength.

The assay has as its target RecA, bacterial two-hybrid fusion (S. pneumoniae) (UniProt P0A452). The assay can be described thus: two-hybrid; adenylate cyclase-based bacterial two-hybrid (BacTH), T18 and T25 fusions in E. coli BTH101, drops on LB plates with IPTG and X-Gal, 24 h at 25 °C.

On to “RecA, bacterial two-hybrid fusion (from UniProt P0A452 1-388) (enzyme)”, for which the binding entry is listed as “binds”.
